This note sets out measurements from PMC12445474, “Conservation of heat stress acclimation by the IPK2-type kinases that control the synthesis of the inositol pyrophosphate 4/6-InsP7 in land plants” (PLOS Genetics, 2025).

These are yes or no findings as the source states them, for the method shown. In cells and extracts the contact can be indirect. A result given as binding can be weak or reduced; the word gives no strength. Where a sequence is shown, tags or fusion partners need not be part of it.

This experiment deals with AtHSFA1b, nVENUS fusion for BiFC (Arabidopsis thaliana). The experiment in a line: split reporter; BiFC with nVENUS and cCFP fusions co-infiltrated by Agrobacterium GV3101 in N. benthamiana leaves; lower epidermal layer viewed by confocal microscopy.

B1: AtIPK2β, cCFP fusion for BiFC (protein, UniProt Q9FLT2 1-300)
chain: MLKVPEHQVAGHIASDGKLGPLVDDQGRFFKPLQGDSRGEHEAKFYESFTSNMKVPDHIHRYFPVYHGTQLVEASDGSGKLPHLVLDDVVSGYANPSVMDVKIGSRTWYPDVSEEYFKKCIKKDRQTTTVSLGFRVSGFKIFDHQESSFWRAEKKLVLGYNADGARLALRKFVSSNSPADSNLTPNCAFASEVYGGCNGILAQLLELKDWFETQTLYHFNSCSILMIYENESILMQGGDDAPAPRAQVKLVDFAHVLDGNGVIDHNFLGGLCSFIKFIKDILQSVEKHDETDTSLLENGR
Turning to B1, the binding result is listed as “binds”.
